PubChem BioAssay AID652259 – Drosophila RNAi Screening Center | 2013
Test: 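Genome-wide hunt for genes that control Wingless pathway activity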 (primary screen). Cells: Drosophila clone 8 imaginal disc epithelial cells. Reagents: long dsRNA against Drosophila genes. Treatment: pathway stimulated by co-transfected Wingless expression plasmid. Measured: 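Firefly luciferase from a tcf-site Wingless reporter, measured alongside co-transfected Renilla luciferase that tracks transfection; pathway stimulated by a Wingless plasmid; the firefly-to-Renilla ratio is not deposited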. Direction: firefly reporter light: higher = more Wg reporter light, before normalisation; Renilla control light: higher = more transfected or surviving cells. Hit rule: 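Strong candidates differ from their plate mean by at least two out of four per-plate statistical tests; weak candidates meet just one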. Calls: active = candidate regulator (raises or lowers reporter); inactive = not a candidate.
In all, the deposit lists about 22,000 reagents; shown is an unselected part of those with a known target gene and a result. Over the whole deposit, 233 (1.1%) are marked active. 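Light values are raw, unnormalised plate reads; the ratio scores behind the reporter calls were not deposited.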 Entries without a mark were called inactive. Names joined by + are all predicted targets of the reagent. Not stated in the record: the amount of reagent, the time to read-out, the dose of the treatment.

| gene | dsRNA | reporter change call, replicate 1 | firefly reporter light, replicate 1 | firefly reporter light, replicate 2 | Renilla control light, replicate 1 | Renilla control light, replicate 2 |
| --- | --- | --- | --- | --- | --- | --- |
| GAA1 | DRSC18267 | – | 1341 | 5309 | 790 | 1808 |
| CG14418 | DRSC18637 | – | 20003 | – | 9366 | – |
| mam | DRSC05468 | – | 11575 | – | 10000 | – |
| mam | DRSC07648 | Wg reporter activity raised (active) | 8657 | – | 698 | – |
| CG32537 | DRSC20073 | – | 3970 | 9632 | 854 | 2861 |
| CG13029 | DRSC09909 | – | 10896 | – | 4474 | – |
| CG10510 | DRSC11614 | – | 6600 | – | 2090 | – |
| nompC | DRSC03581 | – | 1952 | 6169 | 960 | 1040 |
| CheA75a | DRSC10807 | – | 3612 | – | 1643 | – |
| Nha1 | DRSC02109 | – | 14064 | – | 5365 | – |
| CG11986 | DRSC14461 | – | 3761 | – | 1684 | – |
| Hap40 | DRSC20085 | – | 1873 | 6480 | 749 | 2245 |
| Ate1 | DRSC05925 | – | 22708 | – | 4603 | – |
| Dhod | DRSC16647 | – | 4688 | – | 2354 | – |
| upSET | DRSC11051 | – | 6102 | – | 1141 | – |
| Vha16-2 | DRSC10873 | – | 6746 | – | 3859 | – |
| CG11109 | DRSC11633 | – | 8208 | – | 3093 | – |
| pasi1 | DRSC16299 | – | 21064 | 9.82e5 | 6167 | 5.16e5 |
| pasi1 | DRSC22385 | – | 8.34e5 | 8.30e5 | 4.17e5 | 4.01e5 |
| CG11892 | DRSC14428 | – | 1452 | 4794 | 1076 | 647 |
| fs(2)ltoPP43 | DRSC02067 | – | 2850 | 5572 | 480 | 2100 |
| Rbbp5 + CG6434 (retired record) | DRSC10635 | – | 18460 | – | 5131 | – |
| CG34265 | DRSC08030 | – | 3564 | – | 1772 | – |
| CG7546 | DRSC08885 | – | 2402 | – | 741 | – |
| CG7546 | DRSC10871 | – | 10346 | – | 3297 | – |
| CG7546 | DRSC22148 | – | 7.28e5 | 7.14e5 | 3.17e5 | 3.04e5 |
| CG13204 | DRSC06328 | – | 5222 | – | 1993 | – |
| ci | DRSC17172 | – | 15253 | – | 15008 | – |
| Drsl3 | DRSC22630 | – | 6.84e5 | 7.00e5 | 2.16e5 | 1.54e5 |
| lectin-21Ca | DRSC00541 | – | 1987 | 6096 | 1062 | 2098 |
| Rab10 | DRSC20572 | – | 22646 | – | 10930 | – |
| dati | DRSC17128 | – | 2025 | 6275 | 1043 | 1783 |
| dati | DRSC17140 | – | 15205 | – | 14121 | – |
| dati | DRSC17153 | – | 20019 | – | 16819 | – |
| Nlg2 | DRSC00957 | – | 18488 | – | 6944 | – |
| Nlg2 | DRSC03578 | – | 2896 | 8464 | 992 | 1139 |

In a second layout: entries from further up
gene,dsRNA,"reporter change call, replicate 1","firefly reporter light, replicate 1","firefly reporter light, replicate 2","Renilla control light, replicate 1","Renilla control light, replicate 2"
Ate1,DRSC05925,,22708,,4603,
Dhod,DRSC16647,,4688,,2354,
upSET,DRSC11051,,6102,,1141,
Vha16-2,DRSC10873,,6746,,3859,
CG11109,DRSC11633,,8208,,3093,
pasi1,DRSC16299,,21064,9.82e5,6167,5.16e5
pasi1,DRSC22385,,8.34e5,8.30e5,4.17e5,4.01e5
CG11892,DRSC14428,,1452,4794,1076,647
fs(2)ltoPP43,DRSC02067,,2850,5572,480,2100
Rbbp5 + CG6434 (retired record),DRSC10635,,18460,,5131,
CG34265,DRSC08030,,3564,,1772,

The results go on:
| gene | dsRNA | reporter change call, replicate 1 | firefly reporter light, replicate 1 | firefly reporter light, replicate 2 | Renilla control light, replicate 1 | Renilla control light, replicate 2 |
| --- | --- | --- | --- | --- | --- | --- |
| RhoGAP100F | DRSC15409 | – | 2326 | 2512 | 856 | 1016 |
| hay | DRSC11354 | – | 9153 | – | 1648 | – |
| CG14085 | DRSC10089 | – | 18248 | – | 6167 | – |
| CG17249 | DRSC08517 | – | 14309 | – | 3735 | – |
| CheB98a | DRSC14882 | – | 9010 | – | 3152 | – |
| boss | DRSC16916 | – | 19228 | – | 13943 | – |
| Cpr92A | DRSC16000 | – | 22033 | – | 6307 | – |
| LanB1 | DRSC03360 | – | 7251 | – | 4007 | – |
| Galphai | DRSC11168 | – | 5174 | – | 2742 | – |
| eIF3a | DRSC12339 | – | 14147 | – | 2061 | – |
| CG14837 | DRSC10207 | – | 1288 | 6960 | 1120 | 2812 |
| SiaT | DRSC04494 | – | 2064 | 4873 | 589 | 1834 |
| cold | DRSC00538 | – | 9884 | – | 4533 | – |
| lectin-37Da | DRSC03278 | – | 4164 | 8965 | 1328 | 3826 |
| lectin-37Da | DRSC22729 | – | 8.30e5 | 8.30e5 | 3.25e5 | 3.71e5 |
| Eh | DRSC16660 | – | 22208 | – | 4089 | – |
| CG32107 | DRSC09221 | – | 2337 | – | 1216 | – |
| SdhAL | DRSC10539 | – | 2576 | – | 1456 | – |
| ort | DRSC16240 | – | 15318 | – | 3156 | – |
| CR4575 | DRSC18372 | – | 27889 | – | 11692 | – |
| CG33284 | DRSC22905 | – | 5.71e5 | 6.23e5 | 2.51e5 | 2.74e5 |
| CG42269 | DRSC10670 | – | 1419 | 6009 | 817 | 2146 |
| CG42269 | DRSC10672 | – | 1385 | 9650 | 736 | 2948 |
| CG31525 | DRSC12004 | – | 2299 | – | 1259 | – |
| Wdr92 | DRSC10187 | – | 5158 | – | 2694 | – |
| CG7409 | DRSC10842 | – | 1990 | 7353 | 1274 | 2898 |
| CG30159 | DRSC04981 | – | 9946 | – | 4256 | – |
| CycD | DRSC20233 | – | 13514 | – | 7188 | – |
| CG13760 | DRSC18617 | – | 16408 | – | 11555 | – |
| sds22 | DRSC17052 | – | 12160 | – | 3158 | – |
| Egm | DRSC07319 | – | 17090 | – | 5424 | – |
| Egm | DRSC22860 | – | 8.11e5 | 7.57e5 | 2.97e5 | 3.19e5 |
| tut | DRSC08909 | – | 2848 | – | 400 | – |
| RIOK1 | DRSC09853 | – | 11392 | – | 3912 | – |
| MCU | DRSC10339 | – | 1405 | 8343 | 1088 | 3517 |
| CG8159 | DRSC16392 | – | 16587 | – | 4357 | – |
| HP1e | DRSC16379 | – | 9933 | – | 1648 | – |
